No constants are given. Whether binding was seen depends on the method and setting. Some results given as binding are weak or reduced against the parent protein; the word gives no strength. Tags and fused reporters may be left off the sequences shown.

This assay addresses T1, f-5A chimera (catalytic module of T. fusca family-5 endoglucanase Cel5A fused to a dockerin from Ruminococcus flavefaciens).
T1 sequence: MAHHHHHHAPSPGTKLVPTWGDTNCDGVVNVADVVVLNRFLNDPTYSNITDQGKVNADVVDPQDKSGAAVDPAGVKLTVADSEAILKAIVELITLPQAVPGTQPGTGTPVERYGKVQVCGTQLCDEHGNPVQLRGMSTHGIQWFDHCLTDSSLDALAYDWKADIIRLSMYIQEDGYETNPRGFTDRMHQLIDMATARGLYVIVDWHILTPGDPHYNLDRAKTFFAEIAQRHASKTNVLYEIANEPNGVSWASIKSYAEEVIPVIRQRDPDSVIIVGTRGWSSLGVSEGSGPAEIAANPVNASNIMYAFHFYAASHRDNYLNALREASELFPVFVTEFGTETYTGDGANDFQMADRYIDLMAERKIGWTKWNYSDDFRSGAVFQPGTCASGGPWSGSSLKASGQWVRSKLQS
Kind of assay: affinity-based ELISA.

B1: Scaf-F single-cohesin scaffoldin (CBM with R. flavefaciens cohesin) (protein)
chain: MANTPVSGNLKVEFYNSNPSDTTNSINPQFKVTNTGSSAIDLSKLTLRYYYTVDGQKDQTFWCDHAAIIGSNGSYNGITSNVKGTFVKMSSSTNNADTYLEISFTGGTLEPGAHVQIQGRFAKNDWSNYTQSNDYSFKSASQFVEWDQVTAYLNGVLVWGKEPGGSVVPSTQPVTTPPATTKPPATTIPPSDDPNAGSANRTAADGTVEWLIPTVTAAPGQTVTMPVVVKSSSLAVAGAQFKIQAATGVRYSKTDGDAYGSGIVYNNSKYAFGQGAGRGIVAADDSVVLTLAYTVPADCAEGTYDVKWSDAFVSDTDGQNITSKVTLTDGAIIVKKDN
In the case of B1, the binding result is recorded as “binds”.

Source of the values: patent US20120301930A1.
